From the supplement of paper PMC7661543
± gives the standard deviation of the averaged measurements. The effect of the compound repeats well; differences between the knockouts mostly do not.

Test system: SKBR3
Experiment: relative cell number vs DMSO control (72 h) (% of DMSO); higher = less growth inhibition (more cells)
Method: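 QMAP-Seq: a pool of 5 breast cancer cell lines (ZR-75-1, SKBR3, HCC-38, MDA-MB-231, BT-20), each carrying 12 doxycycline-inducible Cas9 sgRNA perturbations (11 knockouts plus non-targeting sgNT), was treated with compounds for 72 h at four 10-fold doses (10 nM-10 uM or 1 nM-1 uM range). Barcodes were amplified and sequenced, and cell number was interpolated from 293T spike-in standard curves. The result is expressed as % of the median of DMSO wells. Two biological replicates.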

[1] = sgRNA knockout: sgATF3, 1000 nM
[2] = sgRNA knockout: sgATF3, 10000 nM
[3] = sgRNA knockout: sgATF4, 1000 nM
[4] = sgRNA knockout: sgATF4, 10000 nM
[5] = sgRNA knockout: sgATF6, 1000 nM
[6] = sgRNA knockout: sgATF6, 10000 nM
[7] = sgRNA knockout: sgATG7, 1000 nM
[8] = sgRNA knockout: sgATG7, 10000 nM
[9] = sgRNA knockout: sgERN1, 1000 nM
[10] = sgRNA knockout: sgERN1, 10000 nM
[11] = sgRNA knockout: sgHSF1, 1000 nM
[12] = sgRNA knockout: sgHSF1, 10000 nM
[13] = sgRNA knockout: sgHSF2, 1000 nM
[14] = sgRNA knockout: sgHSF2, 10000 nM
[15] = sgRNA knockout: sgKEAP1, 100 nM
[16] = sgRNA knockout: sgKEAP1, 1000 nM
[17] = sgRNA knockout: sgKEAP1, 10000 nM
[18] = sgRNA knockout: sgNFE2L2, 10 nM
[19] = sgRNA knockout: sgNFE2L2, 100 nM
[20] = sgRNA knockout: sgNFE2L2, 1000 nM
[21] = sgRNA knockout: sgNFE2L2, 10000 nM
[22] = sgRNA knockout: sgSLC35F2, 10 nM
[23] = sgRNA knockout: sgSLC35F2, 100 nM
[24] = sgRNA knockout: sgSLC35F2, 1000 nM
[25] = sgRNA knockout: sgSLC35F2, 10000 nM
[26] = sgRNA knockout: sgXBP1, 1000 nM
[27] = sgRNA knockout: sgXBP1, 10000 nM

C[C@]1(O)C[C@@H](c2nc(-c3ccc4ccc(-c5ccccc5)nc4c3)c3c(N)nccn32)C1 [Linsitinib]
relative cell number (sgRNA knockout: sgATF3, 10 nM): 110 ± 23
relative cell number (sgRNA knockout: sgATF3, 100 nM): 110 ± 2.3
relative cell number [1]: 90 ± 3.9
relative cell number [2]: 81.4 ± 1.8
relative cell number (sgRNA knockout: sgATF4, 10 nM): 116 ± 23
relative cell number (sgRNA knockout: sgATF4, 100 nM): 97.7 ± 5.4
relative cell number [3]: 77.1 ± 3.7
relative cell number [4]: 86.58 ± 0.57
relative cell number (sgRNA knockout: sgATF6, 10 nM): 93.4 ± 21
relative cell number (sgRNA knockout: sgATF6, 100 nM): 88.3 ± 19
relative cell number [5]: 105 ± 10
relative cell number [6]: 83.5 ± 4.4
relative cell number (sgRNA knockout: sgATG7, 10 nM): 120 ± 14
relative cell number (sgRNA knockout: sgATG7, 100 nM): 98.1 ± 26
relative cell number [7]: 75.2 ± 4.7
relative cell number [8]: 69.6 ± 3.3
relative cell number (sgRNA knockout: sgERN1, 10 nM): 75.3 ± 19
relative cell number (sgRNA knockout: sgERN1, 100 nM): 111 ± 26
relative cell number [9]: 103 ± 12
relative cell number [10]: 95.9 ± 20
relative cell number (sgRNA knockout: sgHSF1, 10 nM): 99.4 ± 21
relative cell number (sgRNA knockout: sgHSF1, 100 nM): 99.3 ± 18
relative cell number [11]: 89 ± 3.5
relative cell number [12]: 84 ± 3.7
relative cell number (sgRNA knockout: sgHSF2, 10 nM): 101 ± 4.7
relative cell number (sgRNA knockout: sgHSF2, 100 nM): 93.3 ± 7.5
relative cell number [13]: 89 ± 7.9
relative cell number [14]: 82.1 ± 4.7
relative cell number (sgRNA knockout: sgKEAP1, 10 nM): 96.3 ± 18
relative cell number [15]: 84 ± 0.87
relative cell number [16]: 80.6 ± 6.3
relative cell number [17]: 89.3 ± 4.2
relative cell number [18]: 107 ± 18
relative cell number [19]: 95.2 ± 2.9
relative cell number [20]: 76.2 ± 8.2
relative cell number [21]: 101 ± 0.52
relative cell number [22]: 91.4 ± 38
relative cell number [23]: 93.5 ± 53
relative cell number [24]: 102 ± 6.1
relative cell number [25]: 80.2 ± 18
relative cell number (sgRNA knockout: sgXBP1, 10 nM): 107 ± 7.3
relative cell number (sgRNA knockout: sgXBP1, 100 nM): 107 ± 19
relative cell number [26]: 67.5 ± 12
relative cell number [27]: 84.6 ± 2.8

Cc1cnc(-c2cnc(NCCNc3ccc(C#N)cn3)nc2-c2ccc(Cl)cc2Cl)[nH]1
relative cell number (sgRNA knockout: sgATF3, 10 nM): 91.8 ± 34
relative cell number (sgRNA knockout: sgATF3, 100 nM): 112 ± 7.1
relative cell number [1]: 87.1 ± 24
relative cell number [2]: 72.3 ± 12
relative cell number (sgRNA knockout: sgATF4, 10 nM): 87.2 ± 3.3
relative cell number (sgRNA knockout: sgATF4, 100 nM): 87.5 ± 3.5
relative cell number [3]: 82.5 ± 8.2
relative cell number [4]: 65.3 ± 8.3
relative cell number (sgRNA knockout: sgATF6, 10 nM): 75.6 ± 7.6
relative cell number (sgRNA knockout: sgATF6, 100 nM): 86.8 ± 10
relative cell number [5]: 86.5 ± 13
relative cell number [6]: 56.9 ± 2.1
relative cell number (sgRNA knockout: sgATG7, 10 nM): 87.6 ± 2.2
relative cell number (sgRNA knockout: sgATG7, 100 nM): 65.3 ± 11
relative cell number [7]: 78.6 ± 15
relative cell number [8]: 64.9 ± 4.1
relative cell number (sgRNA knockout: sgERN1, 10 nM): 96.5 ± 18
relative cell number (sgRNA knockout: sgERN1, 100 nM): 101 ± 7.1
relative cell number [9]: 108 ± 16
relative cell number [10]: 82.4 ± 7
relative cell number (sgRNA knockout: sgHSF1, 10 nM): 94.1 ± 4
relative cell number (sgRNA knockout: sgHSF1, 100 nM): 86.6 ± 2.5
relative cell number [11]: 90.26 ± 0.79
relative cell number [12]: 69.4 ± 20
relative cell number (sgRNA knockout: sgHSF2, 10 nM): 82.9 ± 6.7
relative cell number (sgRNA knockout: sgHSF2, 100 nM): 102 ± 12
relative cell number [13]: 82.3 ± 7.4
relative cell number [14]: 66.8 ± 8.6
relative cell number (sgRNA knockout: sgKEAP1, 10 nM): 76 ± 7.3
relative cell number [15]: 82.4 ± 12
relative cell number [16]: 84.8 ± 16
relative cell number [17]: 67.5 ± 32
relative cell number [18]: 101 ± 8.1
relative cell number [19]: 73 ± 10
relative cell number [20]: 103 ± 19
relative cell number [21]: 80.2 ± 15
relative cell number [22]: 95.7 ± 19
relative cell number [23]: 81.5 ± 3
relative cell number [24]: 80 ± 4.2
relative cell number [25]: 71.4 ± 24
relative cell number (sgRNA knockout: sgXBP1, 10 nM): 113 ± 4.1
relative cell number (sgRNA knockout: sgXBP1, 100 nM): 124 ± 8.4
relative cell number [26]: 88.7 ± 28
relative cell number [27]: 77 ± 13

CCOc1ccccc1-n1c(C(C)N2CCN(C(=O)COc3ccc(Cl)cc3)CC2)nc2ccccc2c1=O (configuration not stated) [Erastin]
relative cell number (sgRNA knockout: sgATF3, 10 nM): 85.5 ± 11
relative cell number (sgRNA knockout: sgATF3, 100 nM): 106 ± 9.3
relative cell number [1]: 109 ± 3.4
relative cell number [2]: 79.2 ± 15
relative cell number (sgRNA knockout: sgATF4, 10 nM): 89.6 ± 30
relative cell number (sgRNA knockout: sgATF4, 100 nM): 107 ± 14
relative cell number [3]: 89 ± 6.2
relative cell number [4]: 59.7 ± 7.8
relative cell number (sgRNA knockout: sgATF6, 10 nM): 91.8 ± 20
relative cell number (sgRNA knockout: sgATF6, 100 nM): 103 ± 3.8
relative cell number [5]: 84.5 ± 18
relative cell number [6]: 74.2 ± 6.4
relative cell number (sgRNA knockout: sgATG7, 10 nM): 99.5 ± 47
relative cell number (sgRNA knockout: sgATG7, 100 nM): 82.2 ± 11
relative cell number [7]: 76.2 ± 30
relative cell number [8]: 71 ± 16
relative cell number (sgRNA knockout: sgERN1, 10 nM): 95.6 ± 37
relative cell number (sgRNA knockout: sgERN1, 100 nM): 97.7 ± 18
relative cell number [9]: 79.2 ± 29
relative cell number [10]: 78.1 ± 15
relative cell number (sgRNA knockout: sgHSF1, 10 nM): 82.2 ± 18
relative cell number (sgRNA knockout: sgHSF1, 100 nM): 87.2 ± 16
relative cell number [11]: 105 ± 8.4
relative cell number [12]: 54.1 ± 4.6
relative cell number (sgRNA knockout: sgHSF2, 10 nM): 93.4 ± 4.3
relative cell number (sgRNA knockout: sgHSF2, 100 nM): 89.9 ± 22
relative cell number [13]: 84.2 ± 6.7
relative cell number [14]: 68.82 ± 0.33
relative cell number (sgRNA knockout: sgKEAP1, 10 nM): 102 ± 19
relative cell number [15]: 93.3 ± 21
relative cell number [16]: 103 ± 26
relative cell number [17]: 64.8 ± 20
relative cell number [18]: 94.6 ± 9.6
relative cell number [19]: 98 ± 39
relative cell number [20]: 80.2 ± 24
relative cell number [21]: 71.1 ± 6.5
relative cell number [22]: 93.9 ± 22
relative cell number [23]: 80 ± 3.6
relative cell number [24]: 95.9 ± 24
relative cell number [25]: 66 ± 4.4
relative cell number (sgRNA knockout: sgXBP1, 10 nM): 96.9 ± 43
relative cell number (sgRNA knockout: sgXBP1, 100 nM): 84.6 ± 4.2
relative cell number [26]: 94 ± 16
relative cell number [27]: 78.4 ± 9.5
